The results in this text go back to paper PMC7284315.

Sequences of proteins named here, by UniProt entry; tags and fusion partners are left off. A change or cut given only in a name is not applied to a line headed by its entry.
UniProt Q2M2I3: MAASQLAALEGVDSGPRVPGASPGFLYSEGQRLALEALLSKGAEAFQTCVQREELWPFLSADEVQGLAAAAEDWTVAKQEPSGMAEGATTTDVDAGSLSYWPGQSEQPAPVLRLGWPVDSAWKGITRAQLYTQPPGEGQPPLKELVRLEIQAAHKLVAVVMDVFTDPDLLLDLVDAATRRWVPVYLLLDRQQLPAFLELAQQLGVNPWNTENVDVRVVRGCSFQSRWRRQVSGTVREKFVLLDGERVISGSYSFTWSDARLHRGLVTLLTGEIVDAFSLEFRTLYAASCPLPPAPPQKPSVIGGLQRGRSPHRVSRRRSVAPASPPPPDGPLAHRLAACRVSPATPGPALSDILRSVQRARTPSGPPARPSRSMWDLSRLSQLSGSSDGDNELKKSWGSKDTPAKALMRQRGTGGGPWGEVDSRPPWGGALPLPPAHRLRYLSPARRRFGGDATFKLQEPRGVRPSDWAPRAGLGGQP
UniProt P48729: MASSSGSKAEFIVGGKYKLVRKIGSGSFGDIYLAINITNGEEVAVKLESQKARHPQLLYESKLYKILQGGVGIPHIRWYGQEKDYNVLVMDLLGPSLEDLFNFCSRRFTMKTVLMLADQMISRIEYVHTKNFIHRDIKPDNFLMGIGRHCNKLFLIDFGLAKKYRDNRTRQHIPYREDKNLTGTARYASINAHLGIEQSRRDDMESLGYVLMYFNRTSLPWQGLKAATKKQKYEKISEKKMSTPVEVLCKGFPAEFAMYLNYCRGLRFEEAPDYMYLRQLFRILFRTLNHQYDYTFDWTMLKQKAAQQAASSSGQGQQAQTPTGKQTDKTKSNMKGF
UniProt P48730: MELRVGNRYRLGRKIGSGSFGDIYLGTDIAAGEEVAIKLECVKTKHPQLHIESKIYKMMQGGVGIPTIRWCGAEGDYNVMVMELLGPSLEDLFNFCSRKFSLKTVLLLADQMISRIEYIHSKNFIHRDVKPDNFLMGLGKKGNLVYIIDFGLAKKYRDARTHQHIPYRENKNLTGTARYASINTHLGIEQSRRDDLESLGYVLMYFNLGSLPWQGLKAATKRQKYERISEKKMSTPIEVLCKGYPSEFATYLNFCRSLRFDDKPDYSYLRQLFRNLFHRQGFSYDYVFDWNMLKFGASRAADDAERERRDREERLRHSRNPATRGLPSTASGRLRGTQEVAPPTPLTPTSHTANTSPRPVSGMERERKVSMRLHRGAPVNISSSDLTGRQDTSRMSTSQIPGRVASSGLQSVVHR
UniProt P49674: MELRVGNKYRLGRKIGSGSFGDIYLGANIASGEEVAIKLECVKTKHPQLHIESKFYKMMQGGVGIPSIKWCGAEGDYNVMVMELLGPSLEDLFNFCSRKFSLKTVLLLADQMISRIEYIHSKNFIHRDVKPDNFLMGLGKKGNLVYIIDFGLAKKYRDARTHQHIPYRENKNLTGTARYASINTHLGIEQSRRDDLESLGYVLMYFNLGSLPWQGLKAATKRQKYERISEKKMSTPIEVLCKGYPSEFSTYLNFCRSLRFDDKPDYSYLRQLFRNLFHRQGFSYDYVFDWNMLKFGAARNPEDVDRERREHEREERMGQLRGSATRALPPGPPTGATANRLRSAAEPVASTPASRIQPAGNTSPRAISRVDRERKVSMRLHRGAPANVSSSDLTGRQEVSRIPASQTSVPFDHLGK
UniProt Q99996: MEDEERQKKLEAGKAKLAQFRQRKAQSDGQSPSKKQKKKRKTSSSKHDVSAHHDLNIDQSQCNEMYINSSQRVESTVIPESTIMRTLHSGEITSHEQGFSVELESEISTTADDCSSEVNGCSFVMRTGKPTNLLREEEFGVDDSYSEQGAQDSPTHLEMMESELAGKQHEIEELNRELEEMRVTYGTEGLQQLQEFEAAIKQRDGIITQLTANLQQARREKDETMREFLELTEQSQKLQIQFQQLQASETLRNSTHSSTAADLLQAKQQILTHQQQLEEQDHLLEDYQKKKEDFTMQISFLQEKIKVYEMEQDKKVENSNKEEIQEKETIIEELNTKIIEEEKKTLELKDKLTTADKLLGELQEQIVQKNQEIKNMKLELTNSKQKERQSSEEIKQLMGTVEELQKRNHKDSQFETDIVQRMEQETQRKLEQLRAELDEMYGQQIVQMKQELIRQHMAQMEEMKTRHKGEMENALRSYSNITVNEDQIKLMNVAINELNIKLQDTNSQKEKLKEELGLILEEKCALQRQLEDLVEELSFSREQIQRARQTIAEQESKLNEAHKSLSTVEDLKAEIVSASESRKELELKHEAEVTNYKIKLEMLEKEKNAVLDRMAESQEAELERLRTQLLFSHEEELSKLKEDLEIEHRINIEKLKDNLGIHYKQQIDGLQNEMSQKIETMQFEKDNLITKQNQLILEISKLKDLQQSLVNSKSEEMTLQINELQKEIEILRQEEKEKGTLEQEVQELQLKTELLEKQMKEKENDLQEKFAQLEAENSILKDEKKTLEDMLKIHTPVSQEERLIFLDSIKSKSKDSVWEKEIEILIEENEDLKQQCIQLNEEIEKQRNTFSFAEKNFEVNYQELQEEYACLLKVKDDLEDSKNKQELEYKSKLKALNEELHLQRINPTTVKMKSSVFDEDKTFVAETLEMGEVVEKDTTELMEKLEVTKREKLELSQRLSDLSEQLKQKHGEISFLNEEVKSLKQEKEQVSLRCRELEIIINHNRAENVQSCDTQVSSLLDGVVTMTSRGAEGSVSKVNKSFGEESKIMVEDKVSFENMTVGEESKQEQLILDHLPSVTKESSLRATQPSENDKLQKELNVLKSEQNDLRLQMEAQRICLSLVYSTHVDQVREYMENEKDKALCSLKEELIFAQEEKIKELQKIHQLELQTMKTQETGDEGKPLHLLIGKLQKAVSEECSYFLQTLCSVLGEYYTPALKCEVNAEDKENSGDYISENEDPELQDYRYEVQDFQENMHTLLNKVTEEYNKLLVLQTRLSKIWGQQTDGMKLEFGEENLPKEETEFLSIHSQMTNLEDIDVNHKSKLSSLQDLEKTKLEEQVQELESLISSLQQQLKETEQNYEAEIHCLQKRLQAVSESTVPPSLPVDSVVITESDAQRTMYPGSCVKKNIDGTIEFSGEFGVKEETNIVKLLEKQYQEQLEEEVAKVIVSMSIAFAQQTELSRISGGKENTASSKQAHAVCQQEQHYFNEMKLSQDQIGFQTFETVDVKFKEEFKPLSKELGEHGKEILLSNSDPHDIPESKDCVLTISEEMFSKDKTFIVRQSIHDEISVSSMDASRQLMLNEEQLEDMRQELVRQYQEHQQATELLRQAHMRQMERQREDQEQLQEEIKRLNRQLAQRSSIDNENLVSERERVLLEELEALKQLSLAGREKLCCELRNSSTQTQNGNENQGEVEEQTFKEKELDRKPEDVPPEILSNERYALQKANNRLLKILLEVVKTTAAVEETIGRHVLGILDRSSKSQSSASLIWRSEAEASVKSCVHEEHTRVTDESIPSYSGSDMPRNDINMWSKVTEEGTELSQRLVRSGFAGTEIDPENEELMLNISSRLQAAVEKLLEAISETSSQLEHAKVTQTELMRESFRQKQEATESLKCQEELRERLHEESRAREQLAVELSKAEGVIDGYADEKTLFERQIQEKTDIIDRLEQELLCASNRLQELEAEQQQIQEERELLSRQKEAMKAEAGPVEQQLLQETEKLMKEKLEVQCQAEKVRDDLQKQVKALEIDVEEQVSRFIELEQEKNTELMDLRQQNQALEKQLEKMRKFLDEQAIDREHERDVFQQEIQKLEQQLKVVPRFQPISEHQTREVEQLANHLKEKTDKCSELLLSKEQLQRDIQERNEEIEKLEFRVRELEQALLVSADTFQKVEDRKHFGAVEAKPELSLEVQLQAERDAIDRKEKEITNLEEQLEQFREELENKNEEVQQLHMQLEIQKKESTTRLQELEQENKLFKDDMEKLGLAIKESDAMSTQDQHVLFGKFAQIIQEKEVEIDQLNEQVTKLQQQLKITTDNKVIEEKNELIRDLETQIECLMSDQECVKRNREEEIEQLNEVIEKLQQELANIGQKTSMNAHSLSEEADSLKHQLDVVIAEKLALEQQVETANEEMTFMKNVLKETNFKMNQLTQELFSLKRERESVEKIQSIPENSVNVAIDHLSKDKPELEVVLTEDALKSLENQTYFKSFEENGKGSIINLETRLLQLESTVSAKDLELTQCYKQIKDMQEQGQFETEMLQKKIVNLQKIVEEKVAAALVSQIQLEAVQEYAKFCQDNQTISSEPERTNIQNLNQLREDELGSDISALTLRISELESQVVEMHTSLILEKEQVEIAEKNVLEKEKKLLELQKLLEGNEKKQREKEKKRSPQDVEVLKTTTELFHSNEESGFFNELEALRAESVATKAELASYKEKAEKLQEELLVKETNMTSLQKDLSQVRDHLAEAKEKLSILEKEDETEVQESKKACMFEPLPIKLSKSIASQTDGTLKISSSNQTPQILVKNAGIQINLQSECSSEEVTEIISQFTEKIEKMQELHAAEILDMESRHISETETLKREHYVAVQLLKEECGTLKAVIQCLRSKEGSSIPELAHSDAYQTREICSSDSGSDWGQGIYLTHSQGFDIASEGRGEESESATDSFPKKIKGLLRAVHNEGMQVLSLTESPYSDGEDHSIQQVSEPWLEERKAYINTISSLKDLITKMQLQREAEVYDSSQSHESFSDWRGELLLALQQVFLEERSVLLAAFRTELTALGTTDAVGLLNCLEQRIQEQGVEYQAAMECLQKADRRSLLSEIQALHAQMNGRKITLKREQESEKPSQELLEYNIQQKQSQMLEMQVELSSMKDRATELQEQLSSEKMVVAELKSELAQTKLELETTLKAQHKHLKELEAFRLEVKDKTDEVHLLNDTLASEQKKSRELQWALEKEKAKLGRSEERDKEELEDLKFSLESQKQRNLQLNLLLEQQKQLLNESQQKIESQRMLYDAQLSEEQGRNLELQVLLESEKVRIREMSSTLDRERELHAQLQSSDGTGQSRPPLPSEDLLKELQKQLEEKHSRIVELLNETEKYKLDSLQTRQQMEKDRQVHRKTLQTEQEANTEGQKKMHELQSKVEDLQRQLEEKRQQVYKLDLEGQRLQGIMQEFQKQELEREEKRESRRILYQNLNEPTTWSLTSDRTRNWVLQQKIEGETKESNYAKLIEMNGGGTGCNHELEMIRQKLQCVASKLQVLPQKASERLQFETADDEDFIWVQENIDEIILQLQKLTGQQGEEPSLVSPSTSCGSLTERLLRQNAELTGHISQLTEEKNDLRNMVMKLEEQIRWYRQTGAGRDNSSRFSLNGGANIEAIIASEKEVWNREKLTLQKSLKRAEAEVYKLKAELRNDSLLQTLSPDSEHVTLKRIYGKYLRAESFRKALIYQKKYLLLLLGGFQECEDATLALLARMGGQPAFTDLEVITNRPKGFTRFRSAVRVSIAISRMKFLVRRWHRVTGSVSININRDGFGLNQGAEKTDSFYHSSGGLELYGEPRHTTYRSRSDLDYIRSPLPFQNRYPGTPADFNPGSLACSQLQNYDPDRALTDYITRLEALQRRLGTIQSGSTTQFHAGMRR

Experiment [1] addresses FAM83E-GFP (U2OS Flp-In T-REx, doxycycline-induced) (UniProt Q2M2I3). The experiment in a line: proximity labelling; FLAG-TurboID-aGFP6M (or FLAG-TurboID control) in U2OS Flp-In T-REx cells expressing FAM83H-GFP or FAM83E-GFP; 50 μM biotin 10 min; streptavidin beads 16 h from 4 mg extract; LC-MS/MS.
The target of experiment [2] is T1, FAM83H-GFP (U2OS Flp-In T-REx, doxycycline-induced) (human) (UniProt Q6ZRV2).
T1 sequence: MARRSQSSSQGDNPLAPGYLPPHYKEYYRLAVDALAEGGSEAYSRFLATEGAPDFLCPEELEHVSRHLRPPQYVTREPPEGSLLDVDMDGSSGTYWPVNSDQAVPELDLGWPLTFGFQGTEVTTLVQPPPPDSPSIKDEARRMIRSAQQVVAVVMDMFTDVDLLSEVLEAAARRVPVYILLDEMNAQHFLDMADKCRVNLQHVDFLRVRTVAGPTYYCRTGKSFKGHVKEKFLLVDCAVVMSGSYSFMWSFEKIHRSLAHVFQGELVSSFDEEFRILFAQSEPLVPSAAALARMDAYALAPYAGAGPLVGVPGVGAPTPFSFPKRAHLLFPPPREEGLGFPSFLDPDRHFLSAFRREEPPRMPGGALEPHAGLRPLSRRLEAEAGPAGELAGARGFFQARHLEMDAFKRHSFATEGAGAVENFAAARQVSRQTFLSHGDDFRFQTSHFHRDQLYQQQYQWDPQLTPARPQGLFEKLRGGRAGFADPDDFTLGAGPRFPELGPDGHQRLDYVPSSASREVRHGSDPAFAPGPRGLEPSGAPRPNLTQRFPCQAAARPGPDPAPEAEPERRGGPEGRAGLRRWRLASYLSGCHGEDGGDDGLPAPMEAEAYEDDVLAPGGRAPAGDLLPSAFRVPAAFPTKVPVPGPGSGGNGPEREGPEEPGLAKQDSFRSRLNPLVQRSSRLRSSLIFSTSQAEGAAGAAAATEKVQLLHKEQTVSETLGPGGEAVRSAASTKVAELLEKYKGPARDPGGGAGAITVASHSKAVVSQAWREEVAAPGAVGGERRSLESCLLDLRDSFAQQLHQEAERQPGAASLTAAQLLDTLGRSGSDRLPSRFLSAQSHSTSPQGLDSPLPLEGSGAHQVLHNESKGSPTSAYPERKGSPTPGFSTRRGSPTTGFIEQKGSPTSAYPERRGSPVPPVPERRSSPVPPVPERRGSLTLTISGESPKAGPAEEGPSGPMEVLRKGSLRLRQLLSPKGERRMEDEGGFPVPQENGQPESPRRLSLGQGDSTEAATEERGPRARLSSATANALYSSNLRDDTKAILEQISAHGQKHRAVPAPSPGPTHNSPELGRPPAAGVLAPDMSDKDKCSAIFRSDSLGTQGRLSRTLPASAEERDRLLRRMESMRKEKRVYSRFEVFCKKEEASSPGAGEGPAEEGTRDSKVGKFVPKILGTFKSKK
Described as above.

The target of experiment [3] is T2, FAM83H with endogenous C-terminal GFP tag (A549 FAM83H^GFP/GFP) (human (endogenous in A549)) (UniProt Q6ZRV2).
T2 sequence: T1 sequence
In words: affinity purification with mass spectrometry; GFP-Trap A beads, 16 h, 6 mg extract of A549 FAM83H^GFP/GFP or A549 wild type cells; SDS-PAGE, trypsin, LC-MS/MS.

Experiment [4] addresses FAM83E-GFP (U2OS Flp-In T-REx, doxycycline-induced) (UniProt Q2M2I3). In words: proximity labelling; FLAG-TurboID-aGFP6M (or FLAG-TurboID control) in U2OS Flp-In T-REx cells expressing FAM83H-GFP or FAM83E-GFP; 50 μM biotin 10 min; streptavidin pull-down; immunoblot. A general note: In western blotting, separated proteins are transferred to a membrane and probed.
Experiment [5] has as its target T1, FAM83H-GFP (U2OS Flp-In T-REx, doxycycline-induced) (human). Described as above.
Experiment [6] addresses mCherry-CK1α (endogenous knock-in, U2OS CK1^mCherry/mCherry) (human (endogenous in U2OS)) (UniProt P48729). In words: affinity purification with mass spectrometry; mCherry IP from lysates of U2OS CK1^mCherry/mCherry knock-in cells, U2OS wild type cells as control; mass spectrometry.
The target in experiment [7] is mCherry-CK1δ (endogenous knock-in, U2OS CK1^mCherry/mCherry) (human (endogenous in U2OS)) (UniProt P48730). Described as above.
Experiment [8] deals with mCherry-CK1ε (endogenous knock-in, U2OS CK1^mCherry/mCherry) (human (endogenous in U2OS)) (UniProt P49674). The description is as above.
The target in experiment [9] is T3, GFP-FAM83H (HEK-293 Flp-In T-REx, doxycycline-induced) (human) (UniProt Q6ZRV2).
T3 sequence: T1 sequence
The experiment in a line: affinity purification with mass spectrometry; anti-GFP IPs from HEK-293 (N-terminal GFP) or U2OS (C-terminal GFP) Flp-In T-REx cells induced to express GFP-tagged FAM83 proteins; LC-MS/MS; data set PXD009335.

Results are given in words; binding and its absence hold for the method and conditions named. In cells and extracts the contact can be indirect. Here binding means that the protein was enriched with, or labelled near, the bait; the list need not be complete. For part of these data: No binding means not detected with the bait. For part of these data: Sequences can lack the tags named with a protein.

On to “AKAP9, endogenous (U2OS) (from UniProt Q99996 1-3907)”, for which the binding entry in experiment [1] is listed as “binds”; in experiment [2], “no binding”.
Regarding “VPS13B, endogenous (U2OS) (from UniProt Q7Z7G8 1-4022)”, the results for the binding result in experiment [1] and in [2] were “binds” and “no binding”, respectively.
As to “protein kinase CK1 isoform ε (CK1ε), endogenous (from UniProt P49674 1-416) (enzyme)”, the binding entry in [3], in experiment [4], in experiment [5], in experiment [1] and in experiment [2] was “binds” throughout.

B1: FAM83H, endogenous (U2OS) (protein, UniProt Q6ZRV2 1-1179)
chain: T1 sequence
Turning to B1, the binding entry in experiment [6], in experiment [7] and in experiment [8] was “binds” each time.

B2: protein UNC45 homolog A (UNC45A), endogenous (protein, UniProt Q9H3U1 1-944)
chain: MTVSGPGTPEPRPATPGASSVEQLRKEGNELFKCGDYGGALAAYTQALGLDATPQDQAVLHRNRAACHLKLEDYDKAETEASKAIEKDGGDVKALYRRSQALEKLGRLDQAVLDLQRCVSLEPKNKVFQEALRNIGGQIQEKVRYMSSTDAKVEQMFQILLDPEEKGTEKKQKASQNLVVLAREDAGAEKIFRSNGVQLLQRLLDMGETDLMLAALRTLVGICSEHQSRTVATLSILGTRRVVSILGVESQAVSLAACHLLQVMFDALKEGVKKGFRGKEGAIIVDPARELKVLISNLLDLLTEVGVSGQGRDNALTLLIKAVPRKSLKDPNNSLTLWVIDQGLKKILEVGGSLQDPPGELAVTANSRMSASILLSKLFDDLKCDAERENFHRLCENYIKSWFEGQGLAGKLRAIQTVSCLLQGPCDAGNRALELSGVMESVIALCASEQEEEQLVAVEALIHAAGKAKRASFITANGVSLLKDLYKCSEKDSIRIRALVGLCKLGSAGGTDFSMKQFAEGSTLKLAKQCRKWLCNDQIDAGTRRWAVEGLAYLTFDADVKEEFVEDAAALKALFQLSRLEERSVLFAVASALVNCTNSYDYEEPDPKMVELAKYAKQHVPEQHPKDKPSFVRARVKKLLAAGVVSAMVCMVKTESPVLTSSCRELLSRVFLALVEEVEDRGTVVAQGGGRALIPLALEGTDVGQTKAAQALAKLTITSNPEMTFPGERIYEVVRPLVSLLHLNCSGLQNFEALMALTNLAGISERLRQKILKEKAVPMIEGYMFEEHEMIRRAATECMCNLAMSKEVQDLFEAQGNDRLKLLVLYSGEDDELLQRAAAGGLAMLTSMRPTLCSRIPQVTTHWLEILQALLLSSNQELQHRGAVVVLNMVEASREIASTLMESEMMEILSVLAKGDHSPVTRAAAACLDKAVEYGLIQPNQDGE
Turning to B2, the binding entry in [9] is reported as “binds”.

B3: CEP131, endogenous (U2OS) (protein, UniProt Q9UPN4 1-1083)
chain: MKGTRAIGSVPERSPAGVDLSLTGLPPPVSRRPGSAATTKPIVRSVSVVTGSEQKRKVLEATGPGGSQAINNLRRSNSTTQVSQPRSGSPRPTEPTDFLMLFEGSPSGKKRPASLSTAPSEKGATWNVLDDQPRGFTLPSNARSSSALDSPAGPRRKECTVALAPNFTANNRSNKGAVGNCVTTMVHNRYTPSERAPPLKSSNQTAPSLNNIIKAATCEGSESSGFGKLPKNVSSATHSARNNTGGSTGLPRRKEVTEEEAERFIHQVNQATVTIQRWYRHQVQRRGAGAARLEHLLQAKREEQRQRSGEGTLLDLHQQKEAARRKAREEKARQARRAAIQELQQKRALRAQKASTAERGPPENPRETRVPGMRQPAQELSPTPGGTAHQALKANNTGGGLPAAGPGDRCLPTSDSSPEPQQPPEDRTQDVLAQDAAGDNLEMMAPSRGSAKSRGPLEELLHTLQLLEKEPDVLPRPRTHHRGRYAWASEVTTEDDASSLTADNLEKFGKLSAFPEPPEDGTLLSEAKLQSIMSFLDEMEKSGQDQLDSQQEGWVPEAGPGPLELGSEVSTSVMRLKLEVEEKKQAMLLLQRALAQQRDLTARRVKETEKALSRQLQRQREHYEATIQRHLAFIDQLIEDKKVLSEKCEAVVAELKQEDQRCTERVAQAQAQHELEIKKLKELMSATEKARREKWISEKTKKIKEVTVRGLEPEIQKLIARHKQEVRRLKSLHEAELLQSDERASQRCLRQAEELREQLEREKEALGQQERERARQRFQQHLEQEQWALQQQRQRLYSEVAEERERLGQQAARQRAELEELRQQLEESSSALTRALRAEFEKGREEQERRHQMELNTLKQQLELERQAWEAGRTRKEEAWLLNREQELREEIRKGRDKEIELVIHRLEADMALAKEESEKAAESRIKRLRDKYEAELSELEQSERKLQERCSELKGQLGEAEGENLRLQGLVRQKERALEDAQAVNEQLSSERSNLAQVIRQEFEDRLAASEEETRQAKAELATLQARQQLELEEVHRRVKTALARKEEAVSSLRTQHEAAVKRADHLEELLEQHRRPTPSTK
On to B3, for which the binding result in experiment [1] is recorded as “binds”; in experiment [2], “no binding”.
